Percent effect of library compounds

Chains of the proteins cited; added tags and fusions are not shown.
UniProt P9WPC5, whole entry: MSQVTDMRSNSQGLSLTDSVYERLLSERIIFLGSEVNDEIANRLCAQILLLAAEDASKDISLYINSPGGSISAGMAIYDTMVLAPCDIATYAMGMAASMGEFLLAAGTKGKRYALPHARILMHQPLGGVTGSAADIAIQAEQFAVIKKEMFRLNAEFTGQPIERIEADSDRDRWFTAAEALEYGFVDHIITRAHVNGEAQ
UniProt P9WPC3, whole entry partner: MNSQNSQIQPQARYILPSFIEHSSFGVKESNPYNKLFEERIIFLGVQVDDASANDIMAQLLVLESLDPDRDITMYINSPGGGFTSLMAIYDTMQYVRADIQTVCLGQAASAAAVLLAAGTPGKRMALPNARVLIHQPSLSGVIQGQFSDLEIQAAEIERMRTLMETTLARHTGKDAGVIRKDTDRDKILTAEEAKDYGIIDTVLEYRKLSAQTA
UniProt I6X8D2, whole entry: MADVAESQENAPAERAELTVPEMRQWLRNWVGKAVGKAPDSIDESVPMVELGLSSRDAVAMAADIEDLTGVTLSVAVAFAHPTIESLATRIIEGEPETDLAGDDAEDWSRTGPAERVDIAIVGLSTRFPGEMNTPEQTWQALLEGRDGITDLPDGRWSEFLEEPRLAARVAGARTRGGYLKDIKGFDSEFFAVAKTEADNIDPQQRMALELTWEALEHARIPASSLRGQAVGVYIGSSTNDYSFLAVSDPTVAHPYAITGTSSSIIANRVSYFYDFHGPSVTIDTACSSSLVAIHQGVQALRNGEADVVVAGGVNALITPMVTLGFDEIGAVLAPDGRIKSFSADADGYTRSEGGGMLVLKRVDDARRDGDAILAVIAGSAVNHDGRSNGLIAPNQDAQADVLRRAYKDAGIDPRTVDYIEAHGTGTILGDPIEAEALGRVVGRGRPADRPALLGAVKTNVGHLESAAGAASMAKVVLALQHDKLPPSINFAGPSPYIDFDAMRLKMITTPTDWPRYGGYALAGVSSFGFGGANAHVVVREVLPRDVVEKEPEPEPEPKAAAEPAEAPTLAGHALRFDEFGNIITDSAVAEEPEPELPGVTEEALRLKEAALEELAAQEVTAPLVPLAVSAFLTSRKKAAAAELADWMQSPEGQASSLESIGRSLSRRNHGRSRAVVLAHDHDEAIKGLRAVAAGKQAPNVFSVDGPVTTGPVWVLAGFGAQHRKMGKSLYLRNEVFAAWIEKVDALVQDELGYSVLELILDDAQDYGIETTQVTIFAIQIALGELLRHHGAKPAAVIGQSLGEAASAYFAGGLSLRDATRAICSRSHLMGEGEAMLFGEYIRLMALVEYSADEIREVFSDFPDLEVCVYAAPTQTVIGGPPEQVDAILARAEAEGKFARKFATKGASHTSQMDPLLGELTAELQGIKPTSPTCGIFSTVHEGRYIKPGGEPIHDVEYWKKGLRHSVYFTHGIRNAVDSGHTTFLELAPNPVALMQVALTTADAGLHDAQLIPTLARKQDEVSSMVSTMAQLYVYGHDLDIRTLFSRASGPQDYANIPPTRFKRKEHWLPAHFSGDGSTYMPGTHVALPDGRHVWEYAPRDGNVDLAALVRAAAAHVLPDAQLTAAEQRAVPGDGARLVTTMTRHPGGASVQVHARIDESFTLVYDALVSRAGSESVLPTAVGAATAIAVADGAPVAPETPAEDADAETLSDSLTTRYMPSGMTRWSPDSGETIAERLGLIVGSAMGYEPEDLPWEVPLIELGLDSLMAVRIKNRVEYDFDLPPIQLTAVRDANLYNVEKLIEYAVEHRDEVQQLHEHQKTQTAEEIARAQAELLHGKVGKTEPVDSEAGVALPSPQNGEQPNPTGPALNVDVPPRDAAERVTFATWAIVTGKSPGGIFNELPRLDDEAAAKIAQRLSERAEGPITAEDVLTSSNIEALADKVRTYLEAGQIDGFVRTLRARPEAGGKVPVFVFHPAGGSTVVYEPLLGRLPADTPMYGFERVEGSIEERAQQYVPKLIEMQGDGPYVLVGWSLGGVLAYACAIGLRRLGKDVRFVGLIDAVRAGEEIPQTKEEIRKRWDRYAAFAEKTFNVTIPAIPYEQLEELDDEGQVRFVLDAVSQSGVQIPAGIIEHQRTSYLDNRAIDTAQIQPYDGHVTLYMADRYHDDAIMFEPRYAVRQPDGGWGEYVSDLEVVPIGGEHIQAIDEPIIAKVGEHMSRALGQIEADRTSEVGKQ

Results are given as percent effect. The controls that fix the scale are not given in the record; negative values are as filed. This is an unselected part of the compounds tested. A dash means the value is not listed here; it may have been measured.

Leishmania in macrophages: 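Cell assay of Leishmania donovani living inside macrophages; the read-out is not stated. Tested at 30 µM. Direction is inferred from retests: higher values go with stronger inhibition. Size under these conditions: about 69,000 compounds, about 1,000 of them at 50% or above in at least one test.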
Toxoplasma: 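Assay of Toxoplasma gondii numbers, read through their beta-galactosidase reporter with a colour substrate. Tested at 10 µM. The record gives no direction; the compounds picked for IC50 retests had high values, so higher reads as fewer parasites. Size under these conditions: about 67,000 compounds, about 260 of them at 50% or above in at least one test.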
ClpP1P2: 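ClpP1P2, Mycobacterium tuberculosis (UniProt P9WPC5 and UniProt P9WPC3). Protease assay of ClpP1P2, read by the AMC dye that it sets free. Compounds at 50 µM. Higher reads as stronger inhibition, judged from the few compounds that gave an IC50. Most other retested compounds had strongly negative values. Of about 69,000 compounds tested this way, about 10 (0.015%) reached 50% or more in at least one test.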
T. brucei: 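Whole-parasite assay of Trypanosoma brucei over 72 hours; the read-out is not stated. Concentration: 30 µM. Direction is inferred from retests: higher values go with stronger inhibition. Values scatter widely below zero; nearly all retest evidence comes from the higher of the two concentrations used. About 64,000 compounds were tested under these conditions; 1.5% (about 940) showed 50% or more at least once.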
Pks13 thioesterase: 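Polyketide synthase Pks13, Mycobacterium tuberculosis (UniProt I6X8D2). Enzyme assay of the thioesterase domain of polyketide synthase 13; the read-out is not stated. Tested at 30 µM. Higher reads as stronger inhibition (inferred from which compounds were picked for retests). About 67,000 compounds were tested under these conditions; 0.46% (about 300) showed 50% or more at least once.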

Compound	Leishmania in macrophages	Toxoplasma	ClpP1P2	T. brucei	Pks13 thioesterase
Cc1oc(-c2ccco2)nc1CN1CCCC(Cn2cncn2)C1 (centres undefined)	-9.551%	24.65%	11.98%	-	-11.24%
CC(C(=O)NCc1ccc(N2CCCCC2)nc1)S(C)(=O)=O (centres undefined)	10.64%	25.9%	-21.25%	-26.48%	5.806%
CCS(=O)(=O)N1CCCC(n2nnn(-c3ccccc3)c2=O)C1 (centres undefined)	1.044%	-7.252%	-0.7534%	12.65%	12.43%
O[C@@H]1C[C@@H](c2nc(-c3ccccc3)no2)N(Cc2cccnc2)C1	-8.645%	2.34%	-12.19%	-8.955%	-14.73%
CC(=O)c1ccc(CNC(=O)c2cc(C#N)cn2C)nc1C	15.37%	-5.114%	-5.727%	6.619%	-5.674%
Cc1ccc(CN2CC3(CCN(C(=O)c4cscn4)C3)C2)s1.O=C(O)C(F)(F)F	10.8%	9.262%	-	0.9799%	-
CC(C)C(NC(=O)NCCNc1cnccn1)c1cccs1 (centres undefined)	11.53%	-6.241%	-30.59%	3.147%	2.378%
O=C(c1ccno1)N1CC[C@@H]2CN(C3CCOCC3)CCO[C@@H]2C1	-	-	-1.642%	-	8.218%
Fc1cnc(N2CCn3cc(CNc4ccccn4)nc3C2)nc1	-	-	-8.772%	-	-5.733%
CC(C)(C)c1oc(C(N)=O)cc1CN1CCOC(C(F)(F)F)C1 (centres undefined)	6.419%	-1.966%	-4.626%	-22.24%	-24.1%
Cc1nc(C)c(CNC(=O)N2CCN(c3ccc(Cl)cn3)CC2)s1	37.73%	-1.932%	-5.676%	13.6%	14.59%
O=C(O)C1CCN(c2ccc(Sc3ccc(Br)cc3)nn2)CC1	-6.561%	-5.827%	-3.151%	-22.87%	-1.436%
O=C(C1CCC2(CCN(CC3CCOCC3)CC2)O1)N1CCCC1 (centres undefined)	-	-	12.93%	-	-54.36%
O=C(Cn1c(=O)nc2n1C(=O)N(c1ccccc1)C2)Nc1ccccc1	8.209%	-6.434%	6.805%	-8.215%	-7.844%
CN(Cc1ccc2nonc2c1)C(=O)CCc1cc2n(n1)CCCNC2	36.57%	7.789%	-3.508%	-9.396%	-8.387%
[H][C@@]12C[C@H](C(=O)N3CCCC3)[C@@]([H])(CN(C(=O)Nc3ccc(F)cc3)C1)O2	10.09%	-2.006%	-	-4.677%	-
CCn1cc(NC(=O)C(C)n2ncc(Cl)c2C)c(C(=O)NC)n1 (centres undefined)	2.027%	1.815%	-17.59%	-19.95%	-3.901%
CC(C)CC(Cc1cccc(Br)c1)C(=O)O (centres undefined)	-11.05%	-8.986%	8.455%	-15.5%	-17.07%
CC(C)[C@@H]1CN(c2ncc(F)cn2)C[C@H]1NS(=O)(=O)N(C)C	3.539%	41.32%	23.86%	-34.97%	20.48%
CC(CNCc1ccc(Cl)cc1)Oc1ccccn1 (centres undefined)	-	-	13.34%	-	-5.646%
O=C(c1cccs1)N1CCCn2c(nc(CN3CCCC3)cc2=O)C1	-17.37%	2.141%	1.786%	-17.22%	-
Cc1noc(C(C)Nc2ccc3c(c2)CCC3)n1 (centres undefined)	-15.59%	1.897%	-6.069%	-9.323%	-0.3986%
COc1cccc(CN2CCN(C(=O)Nc3nc(C)ns3)CC2=O)c1	-7.687%	-10.27%	-2.441%	-19.8%	-22.43%
CCc1nnc2n1CCN(C(=O)c1cnn(C)c1C1CC1)C2	12.48%	-5.907%	-5.345%	-2.988%	-25.12%
Cc1nc2c(c(N(C)C)n1)CCN(C(=O)CN1CCC(O)CC1)C2	30.24%	-	-18.38%	-9.49%	39.83%
CCCN1CCN(C(=O)c2cccnc2)CC1	4.408%	-4.31%	14.73%	-	-22.06%
O=C(CCNc1ccc(Br)cn1)NCc1ccncc1	-8.063%	-7.633%	-1.86%	-356.4%	-8.151%
CCCn1nc(C2CCNCC2)n(Cc2ccccc2)c1=O	9.396%	-5.193%	-5.182%	13.15%	-16.26%
O=C1CN(CCCNC(=O)Nc2cccc(Cl)c2F)CCN1	22.19%	4.599%	7.995%	-8.434%	-35.62%
CC(=O)c1ccc(NC(=O)C(NC(=O)Nc2ccccc2)C(C)C)cc1 (centres undefined)	-16.91%	20.42%	-10.75%	-33.92%	-7.588%
[H][C@@]12CCN(C(=O)COc3ccccc3)[C@]1([H])CC(=O)N2CCOC	-6.642%	-19.48%	-	6.444%	-
Cc1nn(C)c2ncnc(N(C)CC3CCN(CC(C)C)C3)c12 (centres undefined)	3.719%	4.933%	-4.671%	-8.708%	-29.36%
CS(=O)(=O)NCC1CCCN(C(=O)COCc2ccccc2)C1 (centres undefined)	34.5%	-30%	14.78%	-11.17%	-1.004%
Cc1cc(CNC(=O)N2CCCN(Cc3ccccc3)CC2)no1	8.242%	-	9.776%	-48.48%	-21.35%
O=C(O)C(F)(F)F.[H][C@@]12CCN(C3CCC3)C[C@]1([H])OCCN(Cc1ccc(OC)cc1)C2=O	-15.26%	-4.648%	-	-25.4%	-
CCc1noc(CN(C)CC(c2cccs2)N2CCOCC2)n1 (centres undefined)	16.77%	9.796%	-26.19%	-14.32%	-22.56%
Cn1cc(CN2CC[C@@H](NS(C)(=O)=O)[C@@H]2Cc2cccnc2)cn1	-	-	-18.05%	-	-15.16%
CC(C)c1nnc(NC(=O)CN2C(=O)c3ccccc3NC2C(C)C)s1 (centres undefined)	16.46%	-	-390.2%	-1.274%	34.3%
Cc1csc(C2(NCc3csc(C4CC4)n3)CCCC2)n1	0.756%	4.249%	-0.1948%	-13.49%	-6.787%

4 of the entries, repeated:

- Cc1cc(CNC(=O)N2CCCN(Cc3ccccc3)CC2)no1 | Leishmania in macrophages: 8.242%; ClpP1P2: 9.776%; T. brucei: -48.48%; Pks13 thioesterase: -21.35%
- O=C(c1ccno1)N1CC[C@@H]2CN(C3CCOCC3)CCO[C@@H]2C1 | ClpP1P2: -1.642%; Pks13 thioesterase: 8.218%
- CC(C)[C@@H]1CN(c2ncc(F)cn2)C[C@H]1NS(=O)(=O)N(C)C | Leishmania in macrophages: 3.539%; Toxoplasma: 41.32%; ClpP1P2: 23.86%; T. brucei: -34.97%; Pks13 thioesterase: 20.48%
- O[C@@H]1C[C@@H](c2nc(-c3ccccc3)no2)N(Cc2cccnc2)C1 | Leishmania in macrophages: -8.645%; Toxoplasma: 2.34%; ClpP1P2: -12.19%; T. brucei: -8.955%; Pks13 thioesterase: -14.73%

Measurements from “University of Dundee, Small-Polar-MMV Screening Library” (2021), ChEMBL document CHEMBL3988442.